Assay results from PubChem BioAssay AID624297 (National Center for Advancing Translational Sciences (NCATS), 2012).
“And” between values parts separate entries of the source, which are not always exact repeats. Identical values can stand only once. Among all 340,000 compounds or so, about 6,200 (1.8%) were called active. The shares of active, inactive and inconclusive entries below differ from those in the screen. Calls follow the shape of the dose curve; as a rule, active = well fitted activation curve with a large enough effect; inconclusive = small, poorly fitted or top-dose-only effect; inactive = no such curve, though single readings can be large or run the other way. Potencies of inconclusive entries are doubtful fits and often do not repeat.
Potency is read from the fitted curve at half-maximal effect.

Test: A quantitative high throughput screen for small molecules that induce DNA re-replication in SW480 colon adenocarcinoma cells. Also: nearly all actives have a fitted effect of over 55% in size.
Conditions: Hoechst DNA content imaging, 48 h; series mostly up to 46.1 µM
In short: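 Cells (250 per well) received 23 nL compound or DMSO by pin tool and were kept 48 hr at 37 C, 5% CO2. Nuclei were then stained with Hoechst for 40 min and scanned for DNA content.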
For `COc1ccc(CC(=O)N/N=C/c2sccc2C)cc1`, the Potency was inconclusive: 20.6 µM [activator, single point]. In the case of `COc1ccc(NC(=O)Nc2nnc(Cc3ccc(F)cc3)s2)cc1`, the Potency was inconclusive: 3.66 µM [activator, full curve, poor fit]. For `COc1ccccc1CC(=O)NCc1nn(-c2ccccc2)nc1C`, the Potency was “inactive”. For `O=C(Nc1ccccc1)SC1CCCCC1`, the Potency was “inactive”. For `CCCCSC(=S)NC1CCS(=O)(=O)C1` (centres undefined), the Potency was inconclusive: 18.4 µM [activator, partial curve, poor fit]. With `O=C(Nc1ccccc1N1CCCCC1)c1ccc([N+](=O)[O-])o1` the Potency was inconclusive: 23.1 µM [activator, single point]. In the case of `COc1ccccc1C1/C(=C(/O)c2ccc(C)cc2)C(=O)C(=O)N1CC(C)O` (centres undefined), the Potency was “inactive”. With `O=C1c2ccccc2NC(c2cccc(F)c2)N1Cc1ccccc1` (centres undefined) the Potency was inconclusive: 20.6 µM [activator, single point]. In the case of `Cc1ccc(/C=C2\SC(=S)N(CCC(=O)NNC(=O)c3cccc(O)c3)C2=O)cc1`, the Potency was inconclusive: 23.1 µM [activator, single point]. For `COc1cc2c(cc1OC)C(c1ccc(-c3ccccc3Cl)o1)=NCC2`, the Potency was inconclusive: 29.1 µM [activator, single point]. In the case of `Cc1ccc(N2C(=O)[C@@H]3C(C(=O)CCN4C(=O)c5ccccc5C4=O)=NN[C@@H]3C2=O)cc1`, the Potency was inconclusive: 3.66 µM [activator, partial curve, poor fit]. With `CCC(C(=O)Nc1ccccc1OC)n1c(C(=O)OC)cc2ccsc21` (centres undefined) the Potency was inconclusive: 18.4 µM [activator, single point]. In the case of `CCN1CCCC1CN(Cc1cc2ccc(C)cc2[nH]c1=O)C(=S)Nc1ccc(F)cc1` (centres undefined), the Potency was “inactive”. For `COc1cc(-c2ccc3c(=O)c4ccccc4sc3c2)cc(OC)c1OC`, the Potency was active: 0.651 µM. For `COC(=O)C1=C(C(=O)OC)[C@@H]2N(Cc3ccccc3)c3ccccc3[C@@]23C[C@@H](C(=O)OC)N(C(=O)COCc2ccccc2)C3=N1`, the Potency was inconclusive: 2.59 µM [activator, single point]. For `Cc1ccccc1N=Nc1ccc(O)c2ncccc12`, the Potency was inconclusive: 13 µM [activator, single point]. With `COC(=O)c1ccc(COC(=O)c2ccc(N(C)C)cc2)cc1` the Potency was inconclusive: 18.4 µM [activator, partial curve, poor fit]. With `CS(=O)(=O)N1CC(C(=O)NN)Oc2ccc(Cl)cc21` (centres undefined) the Potency was inconclusive: 29.1 µM [activator, single point]. In the case of `CCc1nc(NC(C)(C)C)c2cnn(-c3ccccc3)c2n1`, the Potency was inconclusive: 20.6 µM [activator, single point]. With `O=C(CNC(=O)c1ccncc1)N/N=C/c1cc(Br)ccc1OCc1ccccc1` the Potency was inconclusive: 29.1 µM [activator, single point]. For `CCOC(=O)C1=C(C)NC(C)=C(C(=O)OCC)C1C(=O)OCC(=O)N1CCc2ccccc21`, the Potency was “inactive”. For `COc1ccc(Cn2nnnc2C(c2ccccc2)N2CCN(C3CCCC3)CC2)cc1` (centres undefined), the Potency was “inactive”. With `CC(C)(C)c1ccc(-n2nc(C#N)c(Cl)cc2=O)cc1` the Potency was active: 4.11 µM. For `CC1CCN(C(=O)c2[nH]cnc2C(=O)N[C@@H](Cc2ccccc2)C(=O)OC(C)(C)C)CC1`, the Potency was “inactive”. In the case of `O=C(NC1CC1)C1=C[C@H](C2CC2)C[C@H](OCCCCO)O1`, the Potency was inconclusive: 0.184 µM [activator, partial curve, poor fit]. In the case of `COc1cccc(-n2c(SCc3cc(=O)oc4cc(O)c(O)cc34)nc3ccccc3c2=O)c1`, the Potency was inconclusive: 29.1 µM [activator, single point]. For `O=c1[nH]ccc2c(O)cccc12`, the Potency was “inactive”. With `CC(=NNc1nc2ccccc2o1)c1cc2ccccc2cn1` the Potency was active: 13 µM. In the case of `N#C/C(=C\c1ccc([N+](=O)[O-])o1)C(=O)Nc1ccc(F)cc1`, the Potency was inconclusive: 8.2 µM [activator, partial curve]. With `O=C(OCC1OC(n2ncc(=O)[nH]c2=O)C(OC(=O)c2ccccc2)C1OC(=O)c1ccccc1)c1ccccc1` (centres undefined) the Potency was inconclusive: 23.1 µM [activator, single point]. For `CCOc1cccc(C(=O)Nc2ccccc2N2CCN(C(=O)C(C)C)CC2)c1`, the Potency was inconclusive: 32.6 µM [activator, partial curve, poor fit]. For `N=c1c2c(n(Cc3ccc(F)cc3)c3c1CCC3)CCC2`, the Potency was “inactive”. In the case of `CC(=O)Nc1ccc(NC(=O)c2ccc(NC(=O)c3ccccc3)cc2)cc1`, the Potency was inconclusive: 29.1 µM [activator, single point]. For `Cc1ccc(-c2csc3nc(CN(C)Cc4ccccc4)[nH]c(=O)c23)cc1`, the Potency was inconclusive: 20.6 µM [activator, single point]. For `O=C1Nc2ccccc2N(O)N1c1ccc(S(=O)(=O)Nc2ccccn2)cc1`, the Potency was inconclusive: 1.16 µM [activator, single point]. For `C=CCS/C(N)=N\N=C\c1c(O)ccc2ccccc12`, the Potency was inconclusive: 20.6 µM [activator, single point]. In the case of `CCCn1c(C(C)NS(=O)(=O)c2ccccc2)n[nH]c1=S` (centres undefined), the Potency was “inactive”. In the case of `CCCc1c(NC(=O)Nc2ccc(F)cc2)cnn1-c1ccccc1`, the Potency was inconclusive: 6.51 µM [activator, partial curve, poor fit]. With `Cc1ccc(C(=O)NCCSc2ccc(Cl)cc2)cc1S(=O)(=O)Nc1ccccc1` the Potency was inconclusive: 29.1 µM [activator, single point]. For `O=C(NCCCN1CCOCC1)c1ccc2c(c1)N(Cc1cccc(Cl)c1)C(=O)CS2`, the Potency was “inactive”. In the case of `Cc1cc(C)c2nc(NNC(=O)c3ccc(S(=O)(=O)N4CCCC(C)C4)cc3)sc2c1` (centres undefined), the Potency was inconclusive: 4.61 µM [activator, full curve, poor fit]. For `CCN(CCCCOC(=O)c1ccc(OC)c(OC)c1)C(C)Cc1ccc(OC)cc1` (centres undefined), the Potency was inconclusive: 1 µM [activator, full curve, poor fit] and inconclusive: 20.6 µM [activator, single point]. In the case of `CCN(Cc1nc2ccccc2c(=O)[nH]1)Cc1cc(=O)oc2cc(OC)ccc12`, the Potency was “inactive”. In the case of `CCCCCCSc1nnc(N)s1`, the Potency was inconclusive: 0.461 µM [activator, full curve, poor fit]. In the case of `Cc1ccc(C)c(S(=O)(=O)N2CCCOC2CNC(=O)C(=O)NCCCN2CCOCC2)c1` (centres undefined), the Potency was inconclusive: 20.6 µM [activator, partial curve, poor fit]. For `COc1ccc(OCCn2c(=N)n(CCO)c3ccccc32)cc1`, the Potency was “inactive”. In the case of `CC(C(=O)Nc1ccccc1F)N1CCN(S(=O)(=O)c2ccc(C(F)(F)F)cc2)CC1` (centres undefined), the Potency was “inactive”. In the case of `COC(=O)[C@H]1[C@H](C(=O)OC)[C@@H](C(=O)OC)N(c2ccc(OC)cc2)[C@@H]1C(=O)OC`, the Potency was inconclusive: 0.116 µM [activator, partial curve, poor fit]. In the case of `CC1=C(C(=O)O)N2C(=O)C(NC(=O)c3nn(C)cc3[N+](=O)[O-])C2SC1` (centres undefined), the Potency was “inactive”. With `O=[N+]([O-])c1ccc(CN2CCCCCC2)s1` the Potency was inconclusive: 29.1 µM [activator, single point]. For `O=C(COC(=O)/C=C/c1ccc([N+](=O)[O-])cc1)NC(=O)NC1CCCCC1`, the Potency was “inactive”. With `COc1ccc(/C=C/C(=O)NC(=S)NNC(=O)[C@H]2C[C@@H]2c2ccccc2)cc1OC` the Potency was inconclusive: 29.1 µM [activator, single point]. With `CCNc1oc(-c2cccc3ccccc23)nc1C#N` the Potency was inconclusive: 9.2 µM [activator, partial curve]. In the case of `CCOc1ccc(CN(C)CC(O)COC(c2ccc(OC)cc2)c2ccc(OC)cc2)cc1` (centres undefined), the Potency was inconclusive: 0.112 µM [activator, full curve, poor fit]. In the case of `CCN(CC)CCOCCOC(=O)C1(c2ccccc2)CCCC1`, the Potency was inconclusive: 33.5 µM [activator, single point]. For `Cc1cc(=O)oc2cc(NC(=O)Cc3ccccc3)ccc12`, the Potency was “inactive”. For `COc1ccc2oc(C(=O)OCC(=O)NCCc3ccc(S(N)(=O)=O)cc3)c(C)c2c1`, the Potency was “inactive”. In the case of `C=CCOc1ccc(/C=C/C(=O)OCC(=O)NC2CCCCCCC2)cc1`, the Potency was inconclusive: 29.1 µM [activator, single point]. For `O=C(N/N=C/c1ccc(Cl)cc1)C1CC12CCC2` (centres undefined), the Potency was “inactive”. For `COc1ccccc1NCCC(=O)OCC(=O)Nc1cc([N+](=O)[O-])ccc1F`, the Potency was “inactive”. In the case of `COc1cccc(C2NC(=S)NC(C)=C2C(=O)c2ccccc2)c1OC` (centres undefined), the Potency was active: 5.8 µM. For `Cn1nnnc1Sc1ncnc2scc(-c3ccccc3C(F)(F)F)c12`, the Potency was inconclusive: 18.4 µM [activator, single point]. For `COc1ccc2c(=O)c(C(=O)O)c(-c3ccc4c(c3)OCO4)n(C)c2c1`, the Potency was “inactive”. With `CC1=NN(c2ccc(C(=O)OC(C)C)cc2)C(=O)/C1=C\C=C\c1ccco1` the Potency was inconclusive: 20.6 µM [activator, single point]. With `COc1ccc(C)cc1S(=O)(=O)N1CCCCCC1` the Potency was “inactive”. For `FC(F)(F)c1nnc2c3ccccc3c(Cl)nn12`, the Potency was active: 2.59 µM. For `COc1ccc(C(=O)N2CCN(S(=O)(=O)c3ccc(C)cc3)CC2)cc1S(=O)(=O)N1CCOCC1`, the Potency was inconclusive: 0.58 µM [activator, partial curve, poor fit]. In the case of `O=c1c2c(nc3c(-c4cccc(Br)c4)c[nH]n13)CCCC2`, the Potency was inconclusive: 5.8 µM [activator, full curve, poor fit]. For `Cc1ccc2nc(NCCc3ccc(Cl)cc3)c3nncn3c2c1`, the Potency was “inactive”.
